Measurements reported in patent US20230321123A1, “INHIBITORS OF PSEUDOMONAS AERUGINOSA VIRULENCE FACTOR LasB” (Helmholtz-Zentrum Für Infektionsforschung GmbH, priority 2020, published 2023).
Some results were stated once for a whole list of compounds, not compound by compound.

System: 44 different targets including GPCRs, transporters, ion channels, nuclear receptors, kinases and other non-kinase enzymes
Assay: SafetyScreen44 panel (Eurofins CEREP)
Type: binding
Details: compound concentration of 1.0E-0.5 M

## CC(C)CC(C(=O)N[C@H](c1cn(-c2ccc(Cl)c(Cl)c2)nn1)C(C)C)P(=O)(O)O (mixture of isomers) [Example 170, (1-(((S)-1-(1-(3,4-dichlorophenyl)-1H-1,2,3-triazol-4-yl)-2-methylpropyl)amino)-4-methyl-1-oxopentan-2-yl)phosphonic acid]
  inhibition of control specific binding, all of the targets tested: < 22%

## Cc1ccc(NC(=O)C(CC(C)C)P(=O)(O)O)cc1 (centres unmarked) [Example 63, (4-Methyl-1-oxo-1-(p-tolylamino)pentan-2-yl)phosphonic acid]
  inhibition of control specific binding, all of the targets tested: < 22%
